The entries are a selection whose mix differs from that of the whole data set. Calls are pooled over several reports, among them a noisy single-well screen. Some of the results follow.
Assays:
Conditions in all cases: stereoisomer not certain
[1] = tested on: T1, O5AU1
T1 sequence (whole entry): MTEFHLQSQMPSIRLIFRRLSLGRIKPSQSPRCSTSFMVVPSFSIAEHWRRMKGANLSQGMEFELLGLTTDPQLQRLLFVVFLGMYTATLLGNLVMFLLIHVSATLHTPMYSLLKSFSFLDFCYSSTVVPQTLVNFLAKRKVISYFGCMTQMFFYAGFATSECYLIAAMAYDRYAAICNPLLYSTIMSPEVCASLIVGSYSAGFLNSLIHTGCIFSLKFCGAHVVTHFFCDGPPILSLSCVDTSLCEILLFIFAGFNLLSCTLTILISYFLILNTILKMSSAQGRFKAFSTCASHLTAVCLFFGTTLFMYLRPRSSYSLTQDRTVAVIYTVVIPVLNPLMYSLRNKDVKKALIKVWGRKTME
Method in brief: (§1)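 Transient luciferase assays in mammalian cell lines were common, though methods varied by source. The values come from published papers and their supplementary material, with extra details from the original authors when needed. Responsive refers to a measured signal the original authors judged statistically different from baseline, and non-responsive (inactive) to the remainder.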

[2] = tested on: T2, O5H14
T2 sequence (whole entry): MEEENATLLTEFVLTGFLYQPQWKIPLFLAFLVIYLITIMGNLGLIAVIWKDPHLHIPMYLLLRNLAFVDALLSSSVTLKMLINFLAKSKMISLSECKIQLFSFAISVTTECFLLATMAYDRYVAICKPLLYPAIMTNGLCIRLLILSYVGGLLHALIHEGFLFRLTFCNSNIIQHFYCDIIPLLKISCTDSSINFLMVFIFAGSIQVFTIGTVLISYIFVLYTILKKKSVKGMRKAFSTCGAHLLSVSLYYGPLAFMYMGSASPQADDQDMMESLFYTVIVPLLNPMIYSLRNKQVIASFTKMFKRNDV
Method in brief: as §1

[3] = tested on: T3, O6C68
T3 sequence (whole entry): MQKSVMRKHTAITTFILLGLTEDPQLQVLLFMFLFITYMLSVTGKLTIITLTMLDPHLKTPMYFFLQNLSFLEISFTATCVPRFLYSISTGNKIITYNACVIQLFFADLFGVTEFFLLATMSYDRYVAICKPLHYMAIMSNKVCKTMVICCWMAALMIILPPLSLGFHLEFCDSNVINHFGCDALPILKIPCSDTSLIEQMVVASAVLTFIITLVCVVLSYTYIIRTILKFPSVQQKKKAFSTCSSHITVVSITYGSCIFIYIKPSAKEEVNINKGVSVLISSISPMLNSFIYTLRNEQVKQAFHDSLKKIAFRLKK
Method in brief: as §1

[4] = tested on: T4, O6C70
T4 sequence (whole entry): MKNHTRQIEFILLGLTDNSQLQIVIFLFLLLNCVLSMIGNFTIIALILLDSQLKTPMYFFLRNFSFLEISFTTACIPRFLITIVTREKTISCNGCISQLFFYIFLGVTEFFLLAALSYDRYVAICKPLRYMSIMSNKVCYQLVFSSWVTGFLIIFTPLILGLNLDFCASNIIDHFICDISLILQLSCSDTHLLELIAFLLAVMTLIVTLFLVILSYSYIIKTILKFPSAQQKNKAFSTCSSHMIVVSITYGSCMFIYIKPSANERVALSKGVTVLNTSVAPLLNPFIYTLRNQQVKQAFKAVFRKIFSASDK
Method in brief: as §1

[5] = tested on: T5, O7E24
T5 sequence (whole entry): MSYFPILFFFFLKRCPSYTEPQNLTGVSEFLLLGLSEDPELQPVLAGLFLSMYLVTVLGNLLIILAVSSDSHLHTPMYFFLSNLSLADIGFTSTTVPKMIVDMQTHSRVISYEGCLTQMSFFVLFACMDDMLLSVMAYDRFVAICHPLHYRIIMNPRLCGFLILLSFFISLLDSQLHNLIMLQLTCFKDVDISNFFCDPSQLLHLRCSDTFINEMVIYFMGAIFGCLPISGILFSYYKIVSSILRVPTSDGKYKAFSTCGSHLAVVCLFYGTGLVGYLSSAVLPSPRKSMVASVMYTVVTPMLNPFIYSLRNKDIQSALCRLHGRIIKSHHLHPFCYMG
Method in brief: as §1

[6] = target: T6, OR10A3 (Homo sapiens) (UniProt P58181)
T6 sequence (whole entry): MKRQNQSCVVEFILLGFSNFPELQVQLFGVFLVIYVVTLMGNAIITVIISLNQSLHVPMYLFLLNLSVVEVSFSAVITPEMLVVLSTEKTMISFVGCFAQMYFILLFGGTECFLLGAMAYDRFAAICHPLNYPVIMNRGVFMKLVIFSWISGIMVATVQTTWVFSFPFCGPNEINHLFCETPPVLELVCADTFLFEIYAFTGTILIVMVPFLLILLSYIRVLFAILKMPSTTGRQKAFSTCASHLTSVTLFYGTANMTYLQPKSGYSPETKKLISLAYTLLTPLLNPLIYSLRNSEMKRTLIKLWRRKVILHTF
Method in brief: as §1

[7] = target: T7, OR10A5 (Homo sapiens) (UniProt Q9H207)
T7 sequence (whole entry): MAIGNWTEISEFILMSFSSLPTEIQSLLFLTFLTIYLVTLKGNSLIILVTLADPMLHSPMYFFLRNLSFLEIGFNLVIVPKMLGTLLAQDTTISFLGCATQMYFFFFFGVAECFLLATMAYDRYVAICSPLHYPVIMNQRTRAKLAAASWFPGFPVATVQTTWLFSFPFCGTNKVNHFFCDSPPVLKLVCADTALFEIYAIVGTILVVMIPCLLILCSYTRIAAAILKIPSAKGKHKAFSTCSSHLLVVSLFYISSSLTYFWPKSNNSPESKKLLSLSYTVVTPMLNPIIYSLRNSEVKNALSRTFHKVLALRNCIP
Method in brief: as §1

[8] = target: T8, OR10A6 (Homo sapiens) (UniProt Q8NH74)
T8 sequence (whole entry): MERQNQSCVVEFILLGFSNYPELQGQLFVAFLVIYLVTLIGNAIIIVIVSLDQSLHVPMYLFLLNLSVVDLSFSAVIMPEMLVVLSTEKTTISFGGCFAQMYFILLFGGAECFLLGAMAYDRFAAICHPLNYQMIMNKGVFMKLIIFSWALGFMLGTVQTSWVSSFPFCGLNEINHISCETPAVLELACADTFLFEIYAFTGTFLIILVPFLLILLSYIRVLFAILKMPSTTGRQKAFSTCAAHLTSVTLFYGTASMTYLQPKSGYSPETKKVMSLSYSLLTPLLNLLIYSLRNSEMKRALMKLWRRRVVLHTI
Method in brief: as §1

[9] = target: T9, OR10A7 (Homo sapiens) (UniProt Q8NGE5)
T9 sequence (whole entry): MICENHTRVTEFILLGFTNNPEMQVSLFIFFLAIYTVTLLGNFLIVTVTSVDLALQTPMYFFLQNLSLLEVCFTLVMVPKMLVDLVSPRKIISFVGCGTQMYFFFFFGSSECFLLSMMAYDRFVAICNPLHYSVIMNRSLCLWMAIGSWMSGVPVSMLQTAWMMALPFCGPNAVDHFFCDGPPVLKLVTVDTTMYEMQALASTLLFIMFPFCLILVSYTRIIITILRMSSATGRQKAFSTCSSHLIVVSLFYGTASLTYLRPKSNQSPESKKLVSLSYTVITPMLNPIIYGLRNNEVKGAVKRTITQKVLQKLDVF
Method in brief: as §1

[10] = target: T10, OR10AG1 (Homo sapiens) (UniProt Q8NH19)
T10 sequence (whole entry): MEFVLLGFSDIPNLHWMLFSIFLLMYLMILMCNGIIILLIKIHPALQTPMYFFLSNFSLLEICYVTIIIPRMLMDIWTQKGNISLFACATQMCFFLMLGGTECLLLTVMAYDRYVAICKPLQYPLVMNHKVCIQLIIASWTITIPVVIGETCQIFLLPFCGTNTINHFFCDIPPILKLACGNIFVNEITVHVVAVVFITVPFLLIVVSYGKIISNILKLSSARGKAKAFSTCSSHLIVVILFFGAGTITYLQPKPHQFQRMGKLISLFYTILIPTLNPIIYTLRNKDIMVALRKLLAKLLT
Method in brief: as §1

Measured: odorant receptor agonist call;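 also: active if original authors judged signal statistically different from baseline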

CCCCOC(C)=O
inactive: all assays above
